{"sequences": {"note": "By UniProt entry, the sequences of proteins in these tests, tags left out.", "UniProt P18054, whole entry, looked up": "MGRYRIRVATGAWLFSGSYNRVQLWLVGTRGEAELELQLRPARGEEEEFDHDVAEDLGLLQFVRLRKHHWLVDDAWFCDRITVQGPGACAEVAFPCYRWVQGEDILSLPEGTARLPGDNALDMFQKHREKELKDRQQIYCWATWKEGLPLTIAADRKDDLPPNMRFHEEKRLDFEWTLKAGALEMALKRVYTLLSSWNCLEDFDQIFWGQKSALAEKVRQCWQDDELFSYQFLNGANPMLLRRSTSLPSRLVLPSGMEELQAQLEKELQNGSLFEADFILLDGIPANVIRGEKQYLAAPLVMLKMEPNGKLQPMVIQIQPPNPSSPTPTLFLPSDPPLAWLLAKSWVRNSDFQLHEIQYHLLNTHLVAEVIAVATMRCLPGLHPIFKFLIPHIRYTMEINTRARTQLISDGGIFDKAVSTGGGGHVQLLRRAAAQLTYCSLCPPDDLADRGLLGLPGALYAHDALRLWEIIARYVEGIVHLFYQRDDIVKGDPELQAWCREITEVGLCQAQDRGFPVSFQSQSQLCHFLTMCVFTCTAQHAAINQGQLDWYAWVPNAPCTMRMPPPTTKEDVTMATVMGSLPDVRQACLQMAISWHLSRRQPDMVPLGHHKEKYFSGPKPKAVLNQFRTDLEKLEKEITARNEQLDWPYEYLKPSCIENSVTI"}, "source": "PubChem BioAssay AID1671190", "about": "(National Center for Advancing Translational Sciences (NCATS), 2021)", "note": "About 6,100 (1.1%) of roughly 580,000 compounds were called active. Inconclusive results, whose numbers are uncertain, are shown with a selection of clear calls. The call rests on the fitted dose curve; in most records, active means well fitted inhibition curve with a large enough effect; inconclusive means small, poorly fitted or top-dose-only effect, or another doubt; inactive means no such curve, though single readings can be large or run the other way. A potency beside an inconclusive call is a rough fit, not a confirmed value. On the % scale 0 is the no-effect control and ±100 the full control effect; potency means the concentration at half of the fitted maximal effect."}
{"target": "Polyunsaturated fatty acid lipoxygenase ALOX12 (Homo sapiens) (UniProt P18054)", "experiment": "Primary qHTS assay for inhibitors of human arachidonate 12S-lipoxygenase (ALOX12): Round 2", "conditions": "purified 12hLO, xylenol orange hydroperoxide absorbance; activity change, negative = inhibition: at 108 µM (top of the series) unless noted", "summary_of_the_method": "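Purified human 12hLO (150 nM final) in 25 mM Hepes, 0.01% Triton X-100, pH 7.0 was preincubated 15 min at room temperature with compound. Then 40 uM arachidonic acid was added, 30 min. Hydroperoxide was read by Fe-XO absorbance ratio 573/405 nm.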"}
{"compound": "O=C(Nc1ccc(Br)cc1F)Nc1c(N2CCCC2)c2ccccc2oc1=O", "Potency": "inconclusive: 35.5 µM [inhibitor, partial curve, poor fit]"}
{"compound": "COc1ccc(C)cc1NC(=O)c1ccc2c(c1)N(C)C1CCCN1C2=O", "note": "(configuration not stated)", "activity change, negative = inhibition": "inactive: 16.1%"}
{"compound": "Nc1nc(-c2ccc(Br)cc2)c(S(=O)(=O)c2ccccc2)s1", "Potency": "inconclusive: 50.1 µM [inhibitor, partial curve, poor fit]"}
{"compound": "O=C(COC(=O)c1ccc(CO)cc1)Nc1ccc2ccccc2c1", "Potency": "inconclusive: 100 µM [inhibitor, single point]"}
{"compound": "COc1cccc(NC(=O)CN2CCN(c3nc(-c4ccco4)c4c(c3C#N)CCC4)CC2)c1", "activity change, negative = inhibition": "inactive: 32.2%"}
{"compound": "N#Cc1c(NCCCO)nc(NCc2ccccc2)c2c1CCN(Cc1ccccc1)C2", "Potency": "inconclusive: 31.6 µM [inhibitor, single point]"}
{"compound": "CCCCSCc1cc(C(=O)O)oc1C(C)(C)C", "Potency": "inconclusive: 126 µM [inhibitor, single point]"}
{"compound": "O=C(Nc1ccc(-c2nc3ccccc3[nH]2)cc1)c1c(F)c(F)c(F)c(F)c1F", "Potency": "inconclusive: 56.2 µM [inhibitor, partial curve, poor fit]"}
{"compound": "Cn1c(NCc2ccccc2Cl)nc2c1c(=O)n(Cc1ccc(Cl)cc1)c(=O)n2C", "Potency": "inconclusive: 25.1 µM [inhibitor, partial curve, poor fit]"}
{"compound": "O=c1[nH]c(=O)n(CCc2ccccc2)c2c1C(C(F)(F)F)(C(F)(F)F)N=C(c1ccco1)N2", "Potency": "inconclusive: 44.7 µM [inhibitor, partial curve, poor fit]"}
{"compound": "Cc1cc(Nc2sc(C(=O)c3ccc(F)cc3)c(N)c2C(=O)Nc2ccc(F)cc2)ccc1Cl", "activity change, negative = inhibition": "inactive: -17.2%"}
{"compound": "Cc1ccc(C(=O)NC2(C(F)(F)F)NC(=O)N(c3ccc(Cl)cc3)C2=O)cc1", "note": "(configuration not stated)", "Potency": "inconclusive: 44.7 µM [inhibitor, partial curve, poor fit]"}
{"compound": "O=C1CCCC2=C1C(c1ccc(Br)cc1)c1c([nH]n(-c3ccccc3)c1=O)N2", "note": "(configuration not stated)", "activity change, negative = inhibition": "inactive: -29.7%"}
{"compound": "COc1ccc(CCC(=O)Nc2nc(C)c(C(C)=O)s2)cc1OC", "Potency": "inconclusive: 44.7 µM [inhibitor, partial curve, poor fit]"}
{"compound": "C=CCNC(=S)N/N=C/c1ccc(C(C)(C)C)cc1", "Potency": "inconclusive: 50.1 µM [inhibitor, partial curve, poor fit]"}
{"compound": "CC(C)c1ccc(CCC(=O)Nc2cccnc2)cc1", "activity change, negative = inhibition": "inactive: -5.46%"}
{"compound": "COC(=O)CC1=NN(c2nc3ccccc3s2)C(=O)/C1=C/N(C)C", "Potency": "inconclusive: 50.1 µM [inhibitor, partial curve, poor fit]"}
{"compound": "CCNC(=S)Nc1cccc(NC(=O)c2ccccc2O)c1", "Potency": "inconclusive: 35.5 µM [inhibitor, partial curve, poor fit]"}
{"compound": "Oc1c(N=NC(=S)Nc2ccccc2F)c2ccccc2n1Cc1ccccc1F", "activity change, negative = inhibition": "inactive: -8.59%"}
{"compound": "Nc1c(C(=O)Nc2cccc(Cl)c2)sc2nc3c(cc12)CN(Cc1ccccc1)CC3", "Potency": "inconclusive: 126 µM [inhibitor, partial curve, poor fit]"}
{"compound": "Cc1ccc(S(=O)(=O)N2[C@@H](c3ccc(C(C)(C)C)cc3)C(C(=O)O)=CC[C@H]2c2ccc3c(c2)OCO3)cc1", "Potency": "inconclusive: 44.7 µM [inhibitor, partial curve, poor fit]"}
{"compound": "COc1ccccc1/C=C(/C#N)C(=O)c1c(Cl)cccc1Cl", "activity change, negative = inhibition": "inactive: -100%"}
{"compound": "Cc1ncc2c(c1CNC(=O)COc1ccc(F)cc1)CCNC2", "Potency": "inconclusive: 10 µM [inhibitor, full curve, poor fit]"}
{"compound": "CC(NCc1cccnc1)C12CC3CC(CC(C3)C1)C2", "note": "(configuration not stated)", "Potency": "inconclusive: 28.2 µM [inhibitor, single point]"}
{"compound": "O=C(C1=C(Nc2ccc3c(c2)OCO3)c2ccccc2S1(=O)=O)N1CCOCC1", "activity change, negative = inhibition": "inactive: -8.74%"}
{"compound": "CCOCCCn1c(=N)c(S(=O)(=O)c2ccc(C)cc2)cc2c(=O)n3ccccc3nc21", "Potency": "inconclusive: 56.2 µM [inhibitor, partial curve, poor fit]"}
{"compound": "Cc1ccc(CN2CCOC[C@H]2c2ncc(C(C)(C)C)[nH]2)cc1", "activity change, negative = inhibition": "inactive: 63.9% [at 176 µM]"}
{"compound": "N#Cc1ccc(CNc2ccccc2I)cc1", "activity change, negative = inhibition": "inactive: -4.47%"}
{"compound": "Cc1ccc(S(=O)(=O)NC(C)C(=O)NCc2ccc(Cl)cc2)cc1", "note": "(configuration not stated)", "Potency": "inconclusive: 112 µM [inhibitor, single point]"}
{"compound": "COc1ccc2nc3sc(C(=O)Nc4cc(Cl)c(OC)cc4OC)cc3cc2c1", "activity change, negative = inhibition": "inactive: -26.8%"}
{"compound": "Cc1ccc(C(=O)Nc2ccccc2C(=O)NC(Cc2c[nH]c3ccccc23)C(=O)O)cc1", "note": "(configuration not stated)", "Potency": "inconclusive: 44.7 µM [inhibitor, partial curve, poor fit]"}
{"compound": "S=C(Nc1ccc(N2CCOCC2)cc1)Nc1ccc2nc(-c3ccco3)c(-c3ccco3)nc2c1", "activity change, negative = inhibition": "inactive: -4.1%"}
{"compound": "O=C(CSc1nncn2c1cc1sccc12)Nc1ccccc1C(F)(F)F", "activity change, negative = inhibition": "inactive: -11.6%"}
{"compound": "NC(=O)c1cccnc1N1CCN(CC2(O)CNCCOC2)CC1", "note": "(configuration not stated)", "Potency": "inconclusive: 14.1 µM [inhibitor, partial curve]"}
{"compound": "CCN1C(=O)/C(=C2/SC(C)=C(C)N2CC)SC1=S", "Potency": "inconclusive: 79.4 µM [inhibitor, single point]"}
{"compound": "CCOC(=O)c1c(C)oc2nc(C)nc(NCc3ccc(C)cc3)c12", "Potency": "inconclusive: 141 µM [inhibitor, single point]"}
{"compound": "CCOC(=O)c1c(-c2ccc3ccccc3c2)csc1NC(=O)CCCC(=O)O", "Potency": "inconclusive: 89.1 µM [inhibitor, partial curve, poor fit]"}
{"compound": "Cc1cccn2c(=O)c3cc(C#N)c(=NC(=O)c4ccccc4)n(Cc4ccco4)c3nc12", "Potency": "active: 7.08 µM"}
{"compound": "CCOCCCn1c(=N)c(C(=O)NCc2ccco2)cc2c(=O)n3ccccc3nc21", "Potency": "inconclusive: 63.1 µM [inhibitor, partial curve, poor fit]"}
{"compound": "COc1ccc(-c2nc3cc(NC(=O)c4ccccc4OC)ccc3o2)cc1", "Potency": "inconclusive: 31.6 µM [inhibitor, single point]"}
{"compound": "Cn1cc(S(=O)(=O)c2ccccc2)c(=O)c2cc(F)c(N3CCN(c4ccc(F)cc4)CC3)cc21", "activity change, negative = inhibition": "inactive: -8.54%"}
{"compound": "O=C(CSCC(=O)Nc1cccc([N+](=O)[O-])c1)Nc1ccccc1", "Potency": "inconclusive: 12.6 µM [inhibitor, full curve, poor fit]"}
{"compound": "O=C(Nc1cccc(Br)c1)c1ccc2c(c1)CCC2", "activity change, negative = inhibition": "inactive: -0.866%"}
{"compound": "Cc1cn2c(=O)cc(CSc3ccccc3)nc2s1", "activity change, negative = inhibition": "inactive: -31.1%"}
{"compound": "CN(Cc1cccc(C#N)c1)C(=O)Cc1cccs1", "Potency": "inconclusive: 28.2 µM [inhibitor, partial curve, poor fit]"}
{"compound": "O=C(N/N=C/c1ccccc1Cl)C1CC1", "activity change, negative = inhibition": "inactive: 17.6%"}
{"compound": "C=CCn1c(=O)c(C(=O)Nc2cc(C)ccn2)c(O)c2ccccc21", "activity change, negative = inhibition": "inactive: 9.38%"}
{"compound": "CCN(CC)CCCC(C)Nc1nccc2cccc(Cl)c12", "note": "(configuration not stated)", "Potency": "inconclusive: 79.4 µM [inhibitor, single point]"}
{"compound": "CNc1nc2c(c(=O)n(C)c(=O)n2C)n1CC(O)COc1ccc(C)cc1", "note": "(configuration not stated)", "activity change, negative = inhibition": "inactive: -49.8%"}
{"compound": "CC(OC(=O)CCc1cc(C(C)(C)C)c(O)c(C(C)(C)C)c1)C(=O)NC1CC1", "note": "(configuration not stated)", "Potency": "inconclusive: 35.5 µM [inhibitor, partial curve, poor fit]"}
{"compound": "N#Cc1c(C(F)(F)F)cc(-c2ccccc2)nc1SCC(=O)Nc1sc2c(c1C#N)CCC2", "Potency": "inconclusive: 15.8 µM [inhibitor, partial curve, poor fit]"}
{"compound": "COc1cc(NC(=O)N[C@@H](CCSC)C(=O)O)cc(OC)c1", "Potency": "inconclusive: 50.1 µM [inhibitor, partial curve, poor fit]"}
{"compound": "CC1Cc2ccccc2N1C(=O)COC(=O)/C=C/c1ccc(F)cc1", "note": "(configuration not stated)", "Potency": "inconclusive: 70.8 µM [inhibitor, partial curve, poor fit]"}
{"compound": "CC(C)NC(=O)C[C@@H]1O[C@H](CNC(=O)C2CC2)[C@@H](O)[C@H]1O", "Potency": "active: 56.2 µM"}
{"compound": "Cc1ccc(C)c(N2CCN(CCCc3ccccc3)CC2)c1", "Potency": "inconclusive: 50.1 µM [inhibitor, full curve, poor fit]"}
{"compound": "CCCCOc1ccc(C2C(C(=O)c3cccs3)=C(O)C(=O)N2CCN2CCOCC2)cc1", "note": "(configuration not stated)", "Potency": "inconclusive: 25.1 µM [inhibitor, single point]"}
{"compound": "O=C(CCc1ccccc1)OCCN1CCOCC1", "Potency": "inconclusive: 7.08 µM [inhibitor, partial curve, poor fit]"}
{"compound": "COc1cccc(NC(=O)CSc2nnc(COc3ccc4c(c3)CCCC4)o2)c1", "Potency": "active: 14.1 µM"}
{"compound": "COc1ccc(C(=O)/C=C/c2ccccc2C(F)(F)F)cc1F", "activity change, negative = inhibition": "inactive: 68.2%"}
{"compound": "Cc1cc(=O)oc2cc(NC(=O)COc3ccccc3)ccc12", "Potency": "inconclusive: 44.7 µM [inhibitor, partial curve, poor fit]"}
{"compound": "COc1cc(NC(=S)NCCc2ccc(S(N)(=O)=O)cc2)c(OC)cc1Cl", "activity change, negative = inhibition": "inactive: -23.9%"}
{"compound": "C=CCOc1nc2c(c(=O)n(C)c(=O)n2C)n1Cc1cccc(Br)c1", "Potency": "inconclusive: 112 µM [inhibitor, single point]"}
{"compound": "O=C(Nc1ccc(F)c(F)c1)c1oc2ccccc2c1NC(=O)C1CCCO1", "note": "(configuration not stated)", "activity change, negative = inhibition": "inactive: -12.7%"}
{"compound": "Cc1ccc(N2C(=O)c3cc(-c4ccco4)nn3CC2(C)C(=O)NC2CCCCC2)cc1", "note": "(configuration not stated)", "Potency": "inconclusive: 39.8 µM [inhibitor, partial curve, poor fit]"}
{"compound": "O=C(Nc1cnn(Cc2ccccc2)c1)NC12CC3CC(CC(C3)C1)C2", "Potency": "inconclusive: 50.1 µM [inhibitor, partial curve, poor fit]"}
{"compound": "CCO[C@H]1OC(C(=O)NCc2nc3ccccc3[nH]2)=C[C@@H](C)[C@@H]1CCCO", "activity change, negative = inhibition": "inactive: 7.98%"}
{"compound": "COc1ccc(C(=O)N2CCc3nc(C)nc(-c4ccc(OC)cc4)c3C2)cc1", "Potency": "inconclusive: 22.4 µM [inhibitor, single point]"}
